# Literature values in US20190307762A1, “METHODS AND COMPOSITIONS FOR THE TREATMENT OF TRAUMA AND STRESSOR-RELATED DISORDERS” (priority 2016, published 2019).
# At least one compound was matched to its structure with a doubt left.
# Details: for Equivalent amount: dose equivalent to 20 mg hydrocortisone; for Hydrocortisone equivalent (1 mg of the glucocorticoid corresponds to the listed amount in mg of hydrocortisone): per 1 mg of the glucocorticoid
SMILES,Equivalent amount [mg],Hydrocortisone equivalent (1 mg of the glucocorticoid corresponds to the listed amount in mg of hydrocortisone) [mg]
C[C@@H]1C[C@H]2[C@@H]3CCC4=CC(=O)C=C[C@]4(C)[C@@]3(F)[C@@H](O)C[C@]2(C)[C@@]1(O)C(=O)CO [Dexamethasone],0.75,26.66
C[C@H]1C[C@@H]2[C@H]([C@@H](O)C[C@@]3(C)[C@H]2CC[C@]3(O)C(=O)CO)[C@@]2(C)C=CC(=O)C=C12 [Methylprednisolone],4,5
